Assay results taken from the supplement of paper PMC10849652.
The list shows a part of the results.

Sequences of proteins named here, by UniProt entry; tags and fusion partners are left off. A change or cut given only in a name is not applied to a line headed by its entry.
UniProt O43768: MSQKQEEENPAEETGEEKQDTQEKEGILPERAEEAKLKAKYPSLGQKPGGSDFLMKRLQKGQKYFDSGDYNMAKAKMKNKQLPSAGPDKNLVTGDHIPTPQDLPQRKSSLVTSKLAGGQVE
UniProt P23588, whole entry, looked up: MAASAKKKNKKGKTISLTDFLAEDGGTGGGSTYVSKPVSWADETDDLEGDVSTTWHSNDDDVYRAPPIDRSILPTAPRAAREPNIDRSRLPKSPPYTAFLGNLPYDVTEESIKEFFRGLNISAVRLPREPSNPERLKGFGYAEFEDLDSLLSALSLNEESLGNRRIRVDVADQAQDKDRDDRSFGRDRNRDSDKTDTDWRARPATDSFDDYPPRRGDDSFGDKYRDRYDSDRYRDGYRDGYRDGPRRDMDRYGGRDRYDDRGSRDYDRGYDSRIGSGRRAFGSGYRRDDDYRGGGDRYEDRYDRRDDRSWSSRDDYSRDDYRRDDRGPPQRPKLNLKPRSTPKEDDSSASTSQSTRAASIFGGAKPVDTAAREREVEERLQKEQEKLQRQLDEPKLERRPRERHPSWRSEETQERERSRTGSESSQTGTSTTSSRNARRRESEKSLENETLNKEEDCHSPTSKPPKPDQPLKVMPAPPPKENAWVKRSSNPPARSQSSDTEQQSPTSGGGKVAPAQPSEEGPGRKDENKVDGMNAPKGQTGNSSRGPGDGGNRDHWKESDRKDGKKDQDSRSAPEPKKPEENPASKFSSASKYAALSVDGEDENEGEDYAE
UniProt P06733, whole entry, looked up: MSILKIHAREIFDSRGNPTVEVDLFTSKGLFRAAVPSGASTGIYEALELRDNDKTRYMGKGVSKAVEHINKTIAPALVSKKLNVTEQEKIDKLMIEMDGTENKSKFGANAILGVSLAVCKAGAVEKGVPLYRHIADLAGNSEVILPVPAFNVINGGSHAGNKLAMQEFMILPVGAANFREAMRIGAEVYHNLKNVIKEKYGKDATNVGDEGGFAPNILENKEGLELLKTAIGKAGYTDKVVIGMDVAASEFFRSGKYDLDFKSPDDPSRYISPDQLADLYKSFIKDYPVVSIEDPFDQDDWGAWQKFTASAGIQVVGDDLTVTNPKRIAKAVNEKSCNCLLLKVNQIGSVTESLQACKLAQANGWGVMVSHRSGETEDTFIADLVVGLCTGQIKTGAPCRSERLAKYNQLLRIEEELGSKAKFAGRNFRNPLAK
UniProt P78344: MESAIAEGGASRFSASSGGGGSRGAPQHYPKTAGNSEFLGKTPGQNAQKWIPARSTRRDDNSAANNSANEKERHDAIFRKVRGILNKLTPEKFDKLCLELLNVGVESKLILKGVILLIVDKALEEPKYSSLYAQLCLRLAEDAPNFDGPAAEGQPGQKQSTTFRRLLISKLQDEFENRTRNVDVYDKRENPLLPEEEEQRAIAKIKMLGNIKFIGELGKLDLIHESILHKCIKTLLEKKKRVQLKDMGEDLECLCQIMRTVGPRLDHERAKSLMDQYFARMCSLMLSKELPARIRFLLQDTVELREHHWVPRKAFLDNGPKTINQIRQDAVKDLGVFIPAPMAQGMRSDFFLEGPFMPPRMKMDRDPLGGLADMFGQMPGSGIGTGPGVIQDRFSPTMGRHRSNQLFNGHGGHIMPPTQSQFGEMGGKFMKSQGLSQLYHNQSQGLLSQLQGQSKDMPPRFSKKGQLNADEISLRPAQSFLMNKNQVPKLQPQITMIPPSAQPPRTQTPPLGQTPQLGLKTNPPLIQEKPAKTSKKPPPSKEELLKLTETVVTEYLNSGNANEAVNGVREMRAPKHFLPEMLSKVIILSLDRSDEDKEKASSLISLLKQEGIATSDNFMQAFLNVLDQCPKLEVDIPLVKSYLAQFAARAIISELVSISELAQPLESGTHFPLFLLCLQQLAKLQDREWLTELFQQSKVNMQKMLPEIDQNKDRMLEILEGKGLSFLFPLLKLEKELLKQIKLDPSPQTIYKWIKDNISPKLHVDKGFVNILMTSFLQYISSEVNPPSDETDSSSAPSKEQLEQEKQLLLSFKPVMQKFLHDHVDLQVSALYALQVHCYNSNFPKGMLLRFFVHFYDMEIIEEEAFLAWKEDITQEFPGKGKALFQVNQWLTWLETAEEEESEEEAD
UniProt Q5UCC4: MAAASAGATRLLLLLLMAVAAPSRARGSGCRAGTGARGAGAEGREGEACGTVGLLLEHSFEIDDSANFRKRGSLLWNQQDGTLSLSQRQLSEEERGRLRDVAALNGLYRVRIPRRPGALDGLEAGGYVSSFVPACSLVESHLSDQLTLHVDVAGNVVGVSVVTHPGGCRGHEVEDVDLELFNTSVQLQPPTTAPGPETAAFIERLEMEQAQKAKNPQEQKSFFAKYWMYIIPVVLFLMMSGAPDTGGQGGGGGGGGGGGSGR
UniProt O95834: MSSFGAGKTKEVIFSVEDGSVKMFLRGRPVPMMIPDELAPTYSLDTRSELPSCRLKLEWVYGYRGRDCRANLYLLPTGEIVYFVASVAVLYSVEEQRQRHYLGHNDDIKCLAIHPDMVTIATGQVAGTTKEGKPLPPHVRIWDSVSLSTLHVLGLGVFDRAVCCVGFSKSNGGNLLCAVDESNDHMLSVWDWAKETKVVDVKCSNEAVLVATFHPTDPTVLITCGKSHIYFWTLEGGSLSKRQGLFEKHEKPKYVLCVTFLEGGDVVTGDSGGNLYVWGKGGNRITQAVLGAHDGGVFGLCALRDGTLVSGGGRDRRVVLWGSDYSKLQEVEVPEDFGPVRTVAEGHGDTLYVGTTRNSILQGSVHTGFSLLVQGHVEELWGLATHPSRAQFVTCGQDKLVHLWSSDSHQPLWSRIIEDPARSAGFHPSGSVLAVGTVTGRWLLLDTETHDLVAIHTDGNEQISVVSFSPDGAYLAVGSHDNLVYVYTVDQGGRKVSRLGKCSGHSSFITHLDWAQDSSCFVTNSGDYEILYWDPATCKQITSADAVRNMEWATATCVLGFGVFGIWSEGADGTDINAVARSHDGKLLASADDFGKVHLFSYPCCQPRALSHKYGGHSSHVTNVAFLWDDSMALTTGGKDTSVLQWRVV
UniProt Q14240, whole entry, looked up: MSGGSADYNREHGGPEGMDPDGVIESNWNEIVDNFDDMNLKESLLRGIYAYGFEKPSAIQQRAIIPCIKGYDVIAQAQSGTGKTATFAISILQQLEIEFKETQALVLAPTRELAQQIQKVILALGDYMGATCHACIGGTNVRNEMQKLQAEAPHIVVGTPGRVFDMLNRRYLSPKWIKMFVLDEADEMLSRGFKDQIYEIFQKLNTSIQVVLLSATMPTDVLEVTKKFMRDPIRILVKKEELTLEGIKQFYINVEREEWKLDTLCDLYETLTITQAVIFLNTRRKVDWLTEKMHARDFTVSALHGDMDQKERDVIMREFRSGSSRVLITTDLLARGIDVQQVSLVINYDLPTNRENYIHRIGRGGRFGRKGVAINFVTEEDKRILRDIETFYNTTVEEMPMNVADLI
UniProt Q0PNE2: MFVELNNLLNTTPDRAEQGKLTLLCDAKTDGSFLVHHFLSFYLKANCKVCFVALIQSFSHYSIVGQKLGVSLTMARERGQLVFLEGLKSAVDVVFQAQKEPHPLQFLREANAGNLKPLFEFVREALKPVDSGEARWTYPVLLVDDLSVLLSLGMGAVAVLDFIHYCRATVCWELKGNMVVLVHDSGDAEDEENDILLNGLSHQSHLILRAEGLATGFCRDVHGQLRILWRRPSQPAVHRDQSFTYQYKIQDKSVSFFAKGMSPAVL
UniProt Q6IA86: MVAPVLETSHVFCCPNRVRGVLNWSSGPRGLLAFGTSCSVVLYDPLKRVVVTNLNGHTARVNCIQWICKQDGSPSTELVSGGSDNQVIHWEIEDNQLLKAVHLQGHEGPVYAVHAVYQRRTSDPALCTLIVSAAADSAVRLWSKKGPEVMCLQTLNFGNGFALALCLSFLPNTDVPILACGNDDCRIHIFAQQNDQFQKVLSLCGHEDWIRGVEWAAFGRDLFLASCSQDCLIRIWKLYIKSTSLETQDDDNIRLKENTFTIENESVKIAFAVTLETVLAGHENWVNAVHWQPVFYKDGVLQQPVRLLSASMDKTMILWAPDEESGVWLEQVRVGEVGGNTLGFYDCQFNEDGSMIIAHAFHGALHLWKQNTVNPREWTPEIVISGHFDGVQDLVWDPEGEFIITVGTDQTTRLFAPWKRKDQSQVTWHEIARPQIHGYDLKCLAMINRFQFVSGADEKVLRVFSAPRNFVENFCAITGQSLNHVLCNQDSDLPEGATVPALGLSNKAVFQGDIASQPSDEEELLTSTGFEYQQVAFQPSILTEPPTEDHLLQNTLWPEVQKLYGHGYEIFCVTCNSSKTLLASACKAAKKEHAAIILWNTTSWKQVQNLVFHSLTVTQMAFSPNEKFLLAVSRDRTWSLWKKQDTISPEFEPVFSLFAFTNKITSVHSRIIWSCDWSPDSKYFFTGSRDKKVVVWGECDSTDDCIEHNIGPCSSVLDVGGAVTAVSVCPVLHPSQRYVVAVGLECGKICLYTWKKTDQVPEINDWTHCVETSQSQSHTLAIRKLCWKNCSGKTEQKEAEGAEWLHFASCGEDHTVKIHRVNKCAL
UniProt Q14152, whole entry, looked up: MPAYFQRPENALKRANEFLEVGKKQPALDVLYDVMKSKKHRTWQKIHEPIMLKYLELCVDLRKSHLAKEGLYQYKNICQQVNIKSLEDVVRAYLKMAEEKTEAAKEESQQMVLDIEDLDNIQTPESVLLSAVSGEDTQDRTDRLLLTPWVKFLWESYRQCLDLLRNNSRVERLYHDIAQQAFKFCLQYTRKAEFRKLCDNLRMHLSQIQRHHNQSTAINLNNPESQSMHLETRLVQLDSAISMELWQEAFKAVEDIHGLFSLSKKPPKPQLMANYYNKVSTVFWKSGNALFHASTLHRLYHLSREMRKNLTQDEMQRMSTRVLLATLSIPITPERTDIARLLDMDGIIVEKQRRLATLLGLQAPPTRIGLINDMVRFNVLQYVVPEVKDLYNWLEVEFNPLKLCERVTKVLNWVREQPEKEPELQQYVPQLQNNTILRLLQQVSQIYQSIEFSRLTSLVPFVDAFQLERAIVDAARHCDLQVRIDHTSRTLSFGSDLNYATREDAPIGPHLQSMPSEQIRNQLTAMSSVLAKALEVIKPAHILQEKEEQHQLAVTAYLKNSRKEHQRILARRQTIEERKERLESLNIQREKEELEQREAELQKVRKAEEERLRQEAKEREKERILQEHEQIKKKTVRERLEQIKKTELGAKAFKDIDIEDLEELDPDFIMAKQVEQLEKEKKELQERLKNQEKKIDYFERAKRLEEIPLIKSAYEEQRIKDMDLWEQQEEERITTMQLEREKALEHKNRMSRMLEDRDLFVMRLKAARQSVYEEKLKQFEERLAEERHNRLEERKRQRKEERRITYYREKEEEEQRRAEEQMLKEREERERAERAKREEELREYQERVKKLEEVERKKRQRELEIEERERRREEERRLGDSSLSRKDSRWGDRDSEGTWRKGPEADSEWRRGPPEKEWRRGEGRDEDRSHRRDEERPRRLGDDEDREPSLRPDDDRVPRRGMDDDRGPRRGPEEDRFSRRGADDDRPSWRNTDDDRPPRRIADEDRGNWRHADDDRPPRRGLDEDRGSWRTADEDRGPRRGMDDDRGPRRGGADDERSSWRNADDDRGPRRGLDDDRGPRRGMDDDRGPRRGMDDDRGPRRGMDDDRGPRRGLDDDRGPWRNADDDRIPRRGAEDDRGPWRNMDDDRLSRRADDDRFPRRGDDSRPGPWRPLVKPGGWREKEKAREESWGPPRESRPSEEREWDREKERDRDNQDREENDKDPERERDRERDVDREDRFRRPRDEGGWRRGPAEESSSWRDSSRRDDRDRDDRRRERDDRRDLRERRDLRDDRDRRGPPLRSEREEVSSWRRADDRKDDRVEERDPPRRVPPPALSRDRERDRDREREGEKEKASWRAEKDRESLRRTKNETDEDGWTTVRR
UniProt P63241: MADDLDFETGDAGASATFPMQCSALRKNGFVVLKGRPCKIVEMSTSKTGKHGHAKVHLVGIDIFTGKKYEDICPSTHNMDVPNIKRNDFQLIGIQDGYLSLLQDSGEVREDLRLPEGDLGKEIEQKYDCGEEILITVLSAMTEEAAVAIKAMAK
UniProt O43324: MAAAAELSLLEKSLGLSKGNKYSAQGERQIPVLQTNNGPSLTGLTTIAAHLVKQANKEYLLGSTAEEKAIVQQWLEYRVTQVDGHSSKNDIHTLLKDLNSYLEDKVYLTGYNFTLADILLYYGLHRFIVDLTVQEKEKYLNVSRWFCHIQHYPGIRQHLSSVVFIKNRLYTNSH
UniProt Q9NPA8: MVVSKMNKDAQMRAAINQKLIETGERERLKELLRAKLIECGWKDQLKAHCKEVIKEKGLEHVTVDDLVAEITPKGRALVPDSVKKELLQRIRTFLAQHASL

Tests used:
Test in all cases: log2 fold change, soluble protein after heating vs DMSO (PISA); higher = thermal stabilisation; K562 cells, 10 uM, 30 min; active = over 0.2 and 3.5 SD of the protein, either way, in both replicates (recomputed)
[1] = compound: CS(=O)(=O)c1ccc(-c2cnc(N)c(C(=O)Nc3ccccc3)n2)cc1
Method in brief: (§1)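 Thermal stability values are relative to control samples and come from duplicates. They are expressed as log2 fold changes. For measurement, K562 cells (2×10^6 cells/mL) received 10 μM compound for 30 min, and aliquots were heated for 3 min over 48°C-58°C, pooled, and extracted at 4°C in PBS with 0.5% NP-40. Soluble protein, the supernatant after 21,000xg for 90 min, was quantified by TMTpro 16plex LC-MS/MS with equalised channel sums.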

crizotinib = compound: C[C@@H](Oc1cc(-c2cnn(C3CCNCC3)c2)cnc1N)c1c(Cl)ccc(F)c1Cl [crizotinib]
Method in brief: as §1

[2] = compound: C[C@@H]1COCCN1C2=NC(=NC(=C2)C3(CC3)S(=O)(=O)C)C4=C5C=CNC5=CC=C4
Method in brief: as §1

[3] = compound: C[C@H](C1=CC=C(C=C1)C(=O)NC2=C3C=CNC3=NC=C2)N
Method in brief: as §1

duvelisib = compound: C[C@H](Nc1ncnc2nc[nH]c12)c1cc2cccc(Cl)c2c(=O)n1-c1ccccc1 [duvelisib]
Method in brief: as §1

gandotinib = compound: Cc1cc(Nc2cc(CN3CCOCC3)c3nc(C)c(Cc4ccc(Cl)cc4F)n3n2)n[nH]1 [gandotinib]
Method in brief: as §1

tozasertib = compound: Cc1cc(Nc2cc(N3CCN(C)CC3)nc(Sc3ccc(NC(=O)C4CC4)cc3)n2)n[nH]1 [tozasertib]
Method in brief: as §1

[4] = compound: Cc1cc(SCc2sc(-c3ccc(C(F)(F)F)cc3)nc2C)ccc1OCC(=O)O
Method in brief: as §1

doramapimod = compound: Cc1ccc(-n2nc(C(C)(C)C)cc2NC(=O)Nc2ccc(OCCN3CCOCC3)c3ccccc23)cc1 [doramapimod]
Method in brief: as §1

ispinesib = compound: Cc1ccc(C(=O)N(CCCN)[C@@H](c2nc3cc(Cl)ccc3c(=O)n2Cc2ccccc2)C(C)C)cc1 [ispinesib]
Method in brief: as §1

bafetinib = compound: Cc1ccc(NC(=O)c2ccc(CN3CC[C@H](N(C)C)C3)c(C(F)(F)F)c2)cc1Nc1nccc(-c2cncnc2)n1 [bafetinib]
Method in brief: as §1

[5] = compound: Cc1cccc(CC(=O)N2CCc3c2ccc(-c2cn(C)c4ncnc(N)c24)c3F)n1
Method in brief: as §1

nilotinib = compound: Cc1cn(-c2cc(NC(=O)c3ccc(C)c(Nc4nccc(-c5cccnc5)n4)c3)cc(C(F)(F)F)c2)cn1 [nilotinib]
Method in brief: as §1

[6] = compound: Cc1nc(Nc2n[nH]c3c2CN(C(=O)N[C@H](CN(C)C)c2ccccc2)C3(C)C)c2sccc2n1
Method in brief: as §1

dasatinib = compound: Cc1nc(Nc2ncc(C(=O)Nc3c(C)cccc3Cl)s2)cc(N2CCN(CCO)CC2)n1 [dasatinib]
Method in brief: as §1

[7] = compound: Cc1ncc(-c2ccnc(Nc3ccc(S(C)(=O)=O)cc3)n2)n1C(C)C
Method in brief: as §1

[8] = compound: Cn1cc(-c2ccc3c(c2)CCN3C(=O)Cc2cccc(C(F)(F)F)c2)c2c(N)ncnc21
Method in brief: as §1

[9] = compound: Cn1cc(-c2ccc3nnc(C(F)(F)c4ccc5ncccc5c4)n3n2)cn1
Method in brief: as §1

tipifarnib = compound: Cn1cncc1[C@@](N)(c1ccc(Cl)cc1)c1ccc2c(c1)c(-c1cccc(Cl)c1)cc(=O)n2C [tipifarnib]
Method in brief: as §1

mubritinib = compound: FC(F)(F)c1ccc(/C=C/c2nc(COc3ccc(CCCCn4ccnn4)cc3)co2)cc1 [mubritinib]
Method in brief: as §1

Measured: log2 fold change

ENSA isoform 3 (UniProt O43768)
inactive: [1] 0.024 | crizotinib -0.004 | [2] 0.012 | [3] -0.097 | duvelisib 0.011 | gandotinib -0.035 | tozasertib -0.02 | [4] -0.062 | doramapimod 0.001 | ispinesib 0 | bafetinib -0.073 | [5] -0.023 | nilotinib 0.053 | [6] -0.061 | dasatinib 0.052 | [7] -0.017 | [8] -0.03 | [9] -0.078 | tipifarnib 0.074 | mubritinib 0.028

EIF4B (UniProt P23588)
inactive: [1] -0.025 | crizotinib 0.029 | [2] 0.03 | [3] -0.035 | duvelisib 0.021 | gandotinib -0.028 | tozasertib -0.019 | [4] -0.037 | doramapimod -0.01 | ispinesib 0.003 | bafetinib 0.006 | [5] -0.031 | nilotinib 0.014 | [6] -0.002 | dasatinib 0.031 | [7] -0.02 | [8] -0.005 | [9] -0.007 | tipifarnib 0.043 | mubritinib 0.023

ENO1 isoform 2 (UniProt P06733)
inactive: [1] 0.122 | crizotinib 0.012 | [2] -0.005 | [3] -0.035 | duvelisib 0.142 | gandotinib 0.372 | tozasertib -0.194 | [4] -0.083 | doramapimod 0.043 | ispinesib 0.006 | bafetinib -0.08 | [5] -0.047 | nilotinib 0.121 | [6] 0.053 | dasatinib 0.038 | [7] 0.075 | [8] 0.182 | [9] 0.001 | tipifarnib -0.137 | mubritinib 0.098

EIF4G2 (UniProt P78344)
inactive: [1] 0.015 | crizotinib -0.157 | [2] -0.197 | [3] 0.438 | duvelisib -0.11 | gandotinib -0.011 | tozasertib 0.032 | [4] 0.138 | doramapimod 0.224 | ispinesib -0.324 | bafetinib 0.154 | [5] 0.001 | nilotinib -0.107 | [6] -0.191 | dasatinib -0.032 | [7] -0.048 | [8] -0.12 | [9] -0.167 | tipifarnib -0.118 | mubritinib -0.091

EMC10 (UniProt Q5UCC4)
inactive: [1] 0.006 | crizotinib 0.022 | [2] 0.022 | [3] -0.03 | duvelisib 0.018 | gandotinib -0.041 | tozasertib -0.002 | [4] -0.016 | doramapimod 0.022 | ispinesib -0.006 | bafetinib -0.035 | [5] 0.019 | nilotinib 0.025 | [6] -0.018 | dasatinib -0.047 | [7] -0.031 | [8] 0.064 | [9] 0.144 | tipifarnib -0.07 | mubritinib 0.05

EPB41 (UniProt P11171)
inactive: [1] 0.035 | crizotinib -0.01 | [2] 0.036 | [3] -0.063 | duvelisib -0.028 | gandotinib -0.028 | tozasertib -0.025 | [4] 0.008 | doramapimod -0.019 | ispinesib -0.014 | bafetinib 0.003 | [5] 0.004 | nilotinib 0.053 | [6] -0.048 | dasatinib -0.004 | [7] -0.044 | [8] 0.017 | [9] 0.023 | tipifarnib 0.011 | mubritinib 0.003

EIF4H (UniProt Q15056)
inactive: [1] -0.002 | crizotinib -0.04 | [2] 0.008 | [3] -0.095 | duvelisib -0.02 | gandotinib -0.035 | tozasertib -0.025 | [4] -0.009 | doramapimod 0 | ispinesib -0.032 | bafetinib -0.024 | [5] 0.026 | nilotinib 0.004 | [6] -0.105 | dasatinib -0.056 | [7] -0.047 | [8] 0.016 | [9] -0.013 | tipifarnib -0.009 | mubritinib 0.015

ENGASE (UniProt Q8NFI3)
inactive: [1] 0.001 | crizotinib -0.031 | [2] 0 | [3] 0.025 | duvelisib 0.042 | gandotinib -0.046 | tozasertib 0.027 | [4] 0.03 | doramapimod 0.005 | ispinesib -0.029 | bafetinib -0.066 | [5] -0.086 | nilotinib -0.03 | [6] -0.047 | dasatinib -0.098 | [7] -0.049 | [8] 0.021 | [9] -0.002 | tipifarnib 0.033 | mubritinib 0.026

EML2 isoform 3 (UniProt O95834)
inactive: [1] -0.001 | crizotinib -0.123 | [2] 0.112 | [3] -0.043 | duvelisib 0.029 | gandotinib -0.043 | tozasertib -0.005 | [4] 0.001 | doramapimod -0.004 | ispinesib -0.003 | bafetinib -0.021 | [5] -0.003 | nilotinib 0.006 | [6] -0.018 | dasatinib -0.097 | [7] -0.061 | [8] 0.051 | [9] -0.045 | tipifarnib -0.037 | mubritinib 0.039

EIF4A2 isoform 2 (UniProt Q14240)
inactive: [1] -0.035 | crizotinib -0.009 | [2] 0.016 | [3] -0.037 | duvelisib 0.03 | gandotinib -0.118 | tozasertib -0.012 | [4] 0.032 | doramapimod 0 | ispinesib -0.015 | bafetinib 0.028 | [5] -0.009 | nilotinib -0.053 | [6] -0.046 | dasatinib -0.104 | [7] -0.029 | [8] 0.017 | [9] 0.013 | tipifarnib -0.021 | mubritinib -0.04

ELP6 (UniProt Q0PNE2)
inactive: [1] -0.03 | crizotinib 0.061 | [2] 0.026 | [3] -0.026 | duvelisib 0.015 | gandotinib -0.059 | tozasertib 0.007 | [4] -0.007 | doramapimod -0.026 | ispinesib 0.012 | bafetinib -0.008 | [5] 0.002 | nilotinib 0.003 | [6] 0.003 | dasatinib -0.037 | [7] 0.003 | [8] 0 | [9] 0.007 | tipifarnib -0.078 | mubritinib 0.029

ELP2 isoform 6 (UniProt Q6IA86)
inactive: [1] 0.009 | crizotinib -0.01 | [2] 0.03 | [3] -0.03 | duvelisib 0.031 | gandotinib -0.039 | tozasertib -0.005 | [4] 0.052 | doramapimod -0.022 | ispinesib 0.061 | bafetinib -0.023 | [5] 0.038 | nilotinib -0.011 | [6] 0.021 | dasatinib 0.016 | [7] -0.008 | [8] 0 | [9] -0.029 | tipifarnib 0.019 | mubritinib -0.017

EIF3A (UniProt Q14152)
inactive: [1] -0.018 | crizotinib -0.166 | [2] -0.006 | [3] 0.11 | duvelisib -0.03 | gandotinib 0.012 | tozasertib 0.069 | [4] 0.108 | doramapimod 0.021 | ispinesib -0.112 | bafetinib 0.093 | [5] 0.055 | nilotinib -0.103 | [6] -0.049 | dasatinib -0.154 | [7] 0.071 | [8] -0.055 | [9] -0.054 | tipifarnib -0.134 | mubritinib -0.051

EIF5A isoform 2 (UniProt P63241)
inactive: [1] -0.007 | crizotinib -0.039 | [2] 0.091 | [3] -0.102 | duvelisib 0.009 | gandotinib -0.062 | tozasertib 0.084 | [4] 0.111 | doramapimod -0.009 | ispinesib 0.021 | bafetinib -0.003 | [5] 0.075 | nilotinib 0.003 | [6] -0.127 | dasatinib -0.124 | [7] 0.035 | [8] 0.035 | [9] 0 | tipifarnib -0.085 | mubritinib 0.034

Random excerpt: 2 entries already listed.
EIF4A2 isoform 2 (UniProt Q14240)
inactive: [1] -0.035 | crizotinib -0.009 | [2] 0.016 | [3] -0.037 | duvelisib 0.03 | gandotinib -0.118 | tozasertib -0.012 | [4] 0.032 | doramapimod 0 | ispinesib -0.015 | bafetinib 0.028 | [5] -0.009 | nilotinib -0.053 | [6] -0.046 | dasatinib -0.104 | [7] -0.029 | [8] 0.017 | [9] 0.013 | tipifarnib -0.021 | mubritinib -0.04

EIF3A (UniProt Q14152)
inactive: [1] -0.018 | crizotinib -0.166 | [2] -0.006 | [3] 0.11 | duvelisib -0.03 | gandotinib 0.012 | tozasertib 0.069 | [4] 0.108 | doramapimod 0.021 | ispinesib -0.112 | bafetinib 0.093 | [5] 0.055 | nilotinib -0.103 | [6] -0.049 | dasatinib -0.154 | [7] 0.071 | [8] -0.055 | [9] -0.054 | tipifarnib -0.134 | mubritinib -0.051

Continuation.

EEF1E1 (UniProt O43324)
inactive: [1] 0.027 | crizotinib -0.04 | [2] -0.025 | [3] 0.039 | duvelisib 0.02 | gandotinib 0 | tozasertib -0.01 | [4] 0.052 | doramapimod 0.15 | ispinesib -0.158 | bafetinib -0.018 | [5] 0.051 | nilotinib -0.008 | [6] -0.024 | dasatinib -0.079 | [7] -0.002 | [8] 0.024 | [9] -0.076 | tipifarnib -0.083 | mubritinib 0.032

ENY2 (UniProt Q9NPA8)
inactive: [1] -0.039 | crizotinib 0.166 | [2] 0.159 | [3] -0.087 | duvelisib 0.075 | gandotinib -0.108 | tozasertib 0.048 | [4] 0.01 | doramapimod -0.003 | ispinesib 0.082 | bafetinib -0.016 | [5] -0.003 | nilotinib -0.014 | [6] 0.005 | dasatinib 0.04 | [7] 0 | [8] 0.076 | [9] 0.014 | tipifarnib -0.059 | mubritinib 0.002
